From US8637474B2, “Receptor modulators exhibiting neuroprotective and memory enhancing activities” (The Hong Kong University of Science and Technology, priority 2007, dated 2014)
Entries after “also recorded” stand apart in the source; their conditions may differ. At least one compound was matched to its structure with a doubt left.

Tests used:
[1] = test system: Scopolamine-induced memory impaired mice; test: Morris water maze, scopolamine-induced memory impairment; format: in vivo; conditions: scopolamine 4 mg/kg i.p., DA001 10, 30, 100 mg/kg oral, 5 days
mice = test: Forced swim test (FST); format: in vivo; conditions: DA001 100 mg/kg oral, vs vehicle control
NT-3 expression = test: Real-time quantitative PCR, NT-3 expression following NMDA treatment; format: cell-based, rat; conditions: DA001+NMDA vs DMSO+NMDA, three time intervals
NMDA receptor [2] = test: Whole cell patch clamp, NMDA-induced current in hippocampal neurons; format: cell-based; conditions: DIV10-14 rat hippocampal neurons, NMDA 50 μM, DA001 10 μg/ml
NMDA receptor [3] = test: FLIPR NMDA receptor activity assay (Ca2+ influx) in primary cortical neurons; format: cell-based, rat; conditions: 20 μM NMDA
[4] = test system: rat primary cortical neurons; test: NMDA survival assay (LDH release), primary cortical neurons; format: cell-based
Method: FIG. 5 DA001 protects against NMDA excitotoxicity in rat cortical neurons. Embryonic rat cortical neurons (11DIV) were treated with NMDA (20 μM) in the absence or presence of TCM samples (μg/ml) or memantine (μM). Memantine is a known NMDA antagonist. LDH release in the medium was measured after overnight incubation and cell cytotoxicity was calculated as a percentage when compared to the solvent control, DMSO.
FIG. 12. Derivatives of DA001 rescue the cortical neurons from NMDA excitotoxicity. Embryonic rat cortical neurons (11DIV) were treated with NMDA (20 μM) in the absence or presence of DA001 or its derivatives (10 or 30 μM); LDH release in the medium after overnight or 24 hours incubation was measured and cell death was calculated as a percentage in comparison to DMSO, the solvent control. Data are expressed as mean±s.e.m. *=P<0.05.
FIG. 13. […] LDH release in the medium after overnight incubation was measured and cell cytotoxicity was calculated as a percentage in comparison to DMSO, the solvent control. […]
Memantine is an FDA-approved NMDA antagonist used for clinical indications such as dementia in Alzheimer's disease. Dose-dependant assays were performed for each compound and based on the resulting dose response curve, the corresponding EC50 for each compound was determined. […]
LDH release into the medium was then measured. […]

hippocampal neurons = test: Spine morphogenesis in hippocampal neurons; format: cell-based, rat; conditions: 30 μM DA001, 24 hr, 14 DIV, vs DMSO
[5] = test system: rat primary cortical neurons; test: Immunocytochemical analysis of neurons after NMDA insult; format: cell-based; conditions: DA001 10 μg/ml, beta-tubulin III / DAPI staining
MCAO rats = test: Middle carotid artery occlusion model (MCAO); format: in vivo, rat; conditions: DA001 42 mg/kg, 6 h post-ischemia P.O.
NMDA receptor [6] = test: FLIPR calcium current induced by 1 μM NMDA (synaptic activity); format: cell-based; conditions: rat cortical neurons 9-13 DIV, NMDA 1 μM
cortical neurons = test: Cortical neuron survival assay against glutamate excitotoxicity; format: cell-based, rat; conditions: DA001 30 μM 24 hrs pre-treatment, glutamate 5-200 μM 20 min, high glutamate concentrations
BDNF expression = test: Real-time quantitative PCR, BDNF expression following NMDA treatment; format: cell-based, rat; conditions: DA001+NMDA vs DMSO+NMDA, three time intervals
Method: FIG. 20 illustrates that DA001 induces BDNF and NT-3 expression but not Bcl-2 or c-fos following NMDA treatment.
Cortical neurons were pre-treated with DA001 prior to being subjected to NMDA insults, after which total RNA was extracted at different time intervals after treatment. There was a 5-fold increase in BDNF expression after a 6 hour incubation period. BDNF expression remained ˜3-4 fold over the control (DMSO) 12-24 hours after treatment with DA001.
Total RNA was extracted followed by cDNA synthesis. Gene expression was normalized against home gene, hypoxanthine phosphoribosyltransferase 1 (HPRT1) and glyceraldehyde 3-phosphate dehydrogenase (GAPDH). Relative change in gene expression induced by DA001+H2O and DA001+NMDA was compared with the controls, DMSO+H2O and DMSO+NMDA, respectively.
Cortical neurons were pre-treated with DA001 after which the cells were subjected to NMDA insult. The expression of BDNF was measured at three different time intervals and compared to that of NT-3, Bcl-2 and c-fos. DA001 induced BDNF and NT-3 expression but not bcl-2 or c-fos under the same conditions. […]
Cortical neurons of 11DIV-12DIV were pre-incubated with DA001 or DMSO for 24hours. […] Real-time Quantitative PCR was performed using Power SYBR Green PCR Master Mix (Applied Biosystems) on the M×3000P Real-Time PCR System (Stratagene). […]

c-fos expression = test: Real-time quantitative PCR, c-fos expression following NMDA treatment; format: cell-based, rat; conditions: DA001+NMDA vs DMSO+NMDA, three time intervals
Bcl-2 expression = test: Real-time quantitative PCR, Bcl-2 expression following NMDA treatment; format: cell-based, rat; conditions: DA001+NMDA vs DMSO+NMDA, three time intervals

In the case of C=C(C)[C@@H]1CC[C@]2(C(=O)O)CC[C@]3(C)C(CC[C@@H]4[C@@]5(C)CC[C@H](O[C@@H]6OC[C@H](O)[C@H](O)[C@H]6O[C@@H]6O[C@@H](C)[C@H](O)[C@@H](O)[C@H]6O)[C@@](C)(CO)[C@@H]5CC[C@]43C)[C@@H]12 (stereo partly drawn) [DA001, 3-O-[α-L-rhamnopyranosyl-(1→2)-α-L-arabinopyranosyl]-3,23-dihydroxy-20(29)-lupen-28-oic acid], the escape latency [1] was “reversed the increased escape latency induced by scopolamine at all three test concentrations”, the “duration of immobility time” value (mice) was “significantly reduces the immobility time” and the NT-3 expression (NT-3 expression) was “induced”. For the same molecule, the “NMDA induced current (% of NMDA-induced current)” value (NMDA receptor [2]) was “decreases the NMDA induced current”, the “EC50 for inhibition of Ca2+ influx” value (NMDA receptor [3]; doses 10 nM to 10 μM, compared with memantine) was “comparable EC50 to the known NMDA antagonist memantine” and the “inhibition of NMDA-induced Ca2+ influx (relative fluorescence, % response to NMDA)” value (NMDA receptor [3]; rat cortical neurons 11 DIV, 10 μM glycine) was “showed a relative inhibitory effect; also recorded: inhibit Ca^2+ influx in a dose-dependant manner”. The “cell death at differing concentrations of NMDA” value ([4]; DA001 30 μM 24 hrs pre-treatment, NMDA 1-200 μM 20 min, high NMDA concentrations) was “significant reduction in cell death”, the “activity against NMDA-induced insults (dose curve, EC50) versus memantine” value ([4]; dose-dependant assay, FIG. 10) was “comparable to memantine” and the “large spine (head >1 um) numbers” value (hippocampal neurons) was “significantly increased”. For the same molecule, the numbers of filopodia (hippocampal neurons) was “significantly reduced”, the spine density (hippocampal neurons) was “significantly increased” and the “protection against NMDA insult (immunostaining)” value [5] was “protected the cells from excitotoxicity and resulting apoptosis at a level similar to control cells”. For the same molecule, the “extent of edema (hemispheric brain swelling)” value (MCAO rats) was “effectively reduced; also recorded: significantly decrease”, the “calcium current induced by 1 μM NMDA (fold of response vs DMSO)” value (NMDA receptor [6]) was “potentiates the calcium current induced by 1 μM NMDA” and the “cell death after glutamate insult” value (cortical neurons) was “significant reduction in cell death”. For the same molecule, the BDNF expression (BDNF expression) was “induced”, the c-fos expression (c-fos expression) was “but not” and the Bcl-2 expression (Bcl-2 expression) was “but not”.
